Assay results reported in PubChem BioAssay AID179 (DTP/NCI, 2004).

Tested on: CEM cells HIV-1 protection, formazan growth assay
Test: NCI AIDS Antiviral Assay
Procedure, shortened: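 Category rules: moderately active means at least 50% protection on retest, and confirmed active means 100% protection reproducibly. The underlying data came from a formazan growth assay in HIV-1-infected CEM cells.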

Question: How did the EC50 turn out when `CN[C@H]1CCc2cc(OC)c(OC)c(OC)c2-c2ccc(SC)c(=O)cc21` was run?
Answer: > 200 nM

Question: What about the IC50 (measured here: growth of uninfected CEM cells) of the same compound?
Answer: 1.38 nM
